From PMC8384837
Changes are numbered by the printed parent chain. Some of the results follow. For some assays here: At the low end of the ranking the order means little.

Experiments:
Conditions in all cases: yeast three-hybrid, YBZ-1, SC-Leu-His + 0.5 mM 3-AT, 4 days
[1] = target: T1, PUM1 PUF domain R2-ARP N899A + Y900R + Q903P (Homo sapiens) (UniProt Q14671)
T1 sequence: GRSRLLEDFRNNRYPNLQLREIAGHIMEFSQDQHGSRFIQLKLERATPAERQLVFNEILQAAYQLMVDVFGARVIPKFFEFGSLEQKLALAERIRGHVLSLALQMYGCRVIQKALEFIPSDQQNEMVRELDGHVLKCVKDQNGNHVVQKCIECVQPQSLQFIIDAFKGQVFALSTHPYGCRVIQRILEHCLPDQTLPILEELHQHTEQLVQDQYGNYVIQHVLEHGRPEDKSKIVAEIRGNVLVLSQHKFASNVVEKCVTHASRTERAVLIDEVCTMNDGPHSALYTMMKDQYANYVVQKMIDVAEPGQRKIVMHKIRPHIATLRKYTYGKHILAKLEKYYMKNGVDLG

[2] = target: T2, PUM1 PUF domain R2-AWS N899A + Y900W + Q903S (UniProt Q14671)
T2 sequence: T1 sequence with R73W, P76S

[3] = target: T3, PUM1 PUF domain R2-AYW N899A + Q903W (UniProt Q14671)
T3 sequence: T1 sequence with R73Y, P76W

[4] = target: T4, PUM1 PUF domain R2-CWP N899C + Y900W + Q903P (Homo sapiens) (UniProt Q14671)
T4 sequence: T1 sequence with A72C, R73W

[5] = target: T5, PUM1 PUF domain R2-DWC N899D + Y900W + Q903C (UniProt Q14671)
T5 sequence: T1 sequence with A72D, R73W, P76C

[6] = target: T6, PUM1 PUF domain R2-DWL N899D + Y900W + Q903L (UniProt Q14671)
T6 sequence: T1 sequence with A72D, R73W, P76L

[7] = target: T7, PUM1 PUF domain R2-FWW N899F + Y900W + Q903W (UniProt Q14671)
T7 sequence: T1 sequence with A72F, R73W, P76W

[8] = target: T8, PUM1 PUF domain R2-GWF N899G + Y900W + Q903F (Homo sapiens) (UniProt Q14671)
T8 sequence: T1 sequence with A72G, R73W, P76F

[9] = target: T9, PUM1 PUF domain R2-GWY N899G + Y900W + Q903Y (Homo sapiens) (UniProt Q14671)
T9 sequence: T1 sequence with A72G, R73W, P76Y

[10] = target: T10, PUM1 PUF domain R2-KFG N899K + Y900F + Q903G (Homo sapiens) (UniProt Q14671)
T10 sequence: T1 sequence with A72K, R73F, P76G

[11] = target: T11, PUM1 PUF domain R2-LFA N899L + Y900F + Q903A (UniProt Q14671)
T11 sequence: T1 sequence with A72L, R73F, P76A

[12] = target: T12, PUM1 PUF domain R2-LFC N899L + Y900F + Q903C (Homo sapiens) (UniProt Q14671)
T12 sequence: T1 sequence with A72L, R73F, P76C

[13] = target: T13, PUM1 PUF domain R2-LFI N899L + Y900F + Q903I (UniProt Q14671)
T13 sequence: T1 sequence with A72L, R73F, P76I

[14] = target: T14, PUM1 PUF domain R2-LFL N899L + Y900F + Q903L (Homo sapiens) (UniProt Q14671)
T14 sequence: T1 sequence with A72L, R73F, P76L

[15] = target: T15, PUM1 PUF domain R2-LFS N899L + Y900F + Q903S (Homo sapiens) (UniProt Q14671)
T15 sequence: T1 sequence with A72L, R73F, P76S

[16] = target: T16, PUM1 PUF domain R2-LFV N899L + Y900F + Q903V (Homo sapiens) (UniProt Q14671)
T16 sequence: T1 sequence with A72L, R73F, P76V

[17] = target: T17, PUM1 PUF domain R2-LWD N899L + Y900W + Q903D (Homo sapiens) (UniProt Q14671)
T17 sequence: T1 sequence with A72L, R73W, P76D

[18] = target: T18, PUM1 PUF domain R2-LWF N899L + Y900W + Q903F (Homo sapiens) (UniProt Q14671)
T18 sequence: T1 sequence with A72L, R73W, P76F

[19] = target: T19, PUM1 PUF domain R2-LWM N899L + Y900W + Q903M (Homo sapiens) (UniProt Q14671)
T19 sequence: T1 sequence with A72L, R73W, P76M

[20] = target: T20, PUM1 PUF domain R2-LWY N899L + Y900W + Q903Y (UniProt Q14671)
T20 sequence: T1 sequence with A72L, R73W, P76Y

[21] = target: T21, PUM1 PUF domain R2-NRG Y900R + Q903G (UniProt Q14671)
T21 sequence: T1 sequence with A72N, P76G

[22] = target: T22, PUM1 PUF domain R2-NRW Y900R + Q903W (UniProt Q14671)
T22 sequence: T1 sequence with A72N, P76W

[23] = target: T23, PUM1 PUF domain R2-RTQ N899R + Y900T (Homo sapiens) (UniProt Q14671)
T23 sequence: T1 sequence with A72R, R73T, P76Q

[24] = target: T24, PUM1 PUF domain R2-SWW N899S + Y900W + Q903W (UniProt Q14671)
T24 sequence: T1 sequence with A72S, R73W, P76W

[25] = target: T25, PUM1 PUF domain R2-TFG N899T + Y900F + Q903G (UniProt Q14671)
T25 sequence: T1 sequence with A72T, R73F, P76G

[26] = target: T26, PUM1 PUF domain R2-VFR N899V + Y900F + Q903R (UniProt Q14671)
T26 sequence: T1 sequence with A72V, R73F, P76R

[27] = target: T27, PUM1 PUF domain R2-VWP N899V + Y900W + Q903P (Homo sapiens) (UniProt Q14671)
T27 sequence: T1 sequence with A72V, R73W

[28] = target: T28, PUM1 PUF domain R2-VWW N899V + Y900W + Q903W (Homo sapiens) (UniProt Q14671)
T28 sequence: T1 sequence with A72V, R73W, P76W

[29] = target: T29, PUM1 PUF domain R2-VYP N899V + Q903P (UniProt Q14671)
T29 sequence: T1 sequence with A72V, R73Y

“GGCUAGAACUAGUGGAUCCCCCGGCGCCCGGCGGCUCGAGCCCGGGUAAGUGUAAAGAGUCUGCAUGCCGCCGGGCGCCAUGCCUGCAGGUCGACUCUAGAAAACAUG” gave a binding signal (log2 enrichment (interaction score)) [1] of -1.44, a binding signal (log2 enrichment (interaction score)) [2] of less than -7.71 and a binding signal (log2 enrichment (interaction score)) [3] of less than -8.03. For the same sequence, the binding signal (log2 enrichment (interaction score)) [4] was -0.53, the binding signal (log2 enrichment (interaction score)) [5] was less than -6.39 and the binding signal (log2 enrichment (interaction score)) [6] was less than -6.68. The binding signal (log2 enrichment (interaction score)) [7] was less than -5.79, the binding signal (log2 enrichment (interaction score)) [8] was -0.55 and the binding signal (log2 enrichment (interaction score)) [9] was -0.78. For the same sequence, the binding signal (log2 enrichment (interaction score)) [10] was -4.2, the binding signal (log2 enrichment (interaction score)) [11] was -8.08 and the binding signal (log2 enrichment (interaction score)) [12] was -0.35. For the same sequence, the binding signal (log2 enrichment (interaction score)) [13] was less than -5.87, the binding signal (log2 enrichment (interaction score)) [14] was 0.08 and the binding signal (log2 enrichment (interaction score)) [15] was -0.42. It also gave a binding signal (log2 enrichment (interaction score)) [16] of -2.82, a binding signal (log2 enrichment (interaction score)) [17] of 1.03 and a binding signal (log2 enrichment (interaction score)) [18] of -3.98. For the same sequence, the binding signal (log2 enrichment (interaction score)) [19] was less than -5.75, the binding signal (log2 enrichment (interaction score)) [20] was less than -6.17 and the binding signal (log2 enrichment (interaction score)) [21] was less than -6.59. The binding signal (log2 enrichment (interaction score)) [22] was less than -5.95, the binding signal (log2 enrichment (interaction score)) [23] was -3.93 and the binding signal (log2 enrichment (interaction score)) [24] was less than -6.3. For the same sequence, the binding signal (log2 enrichment (interaction score)) [25] was less than -6.41, the binding signal (log2 enrichment (interaction score)) [26] was less than -7 and the binding signal (log2 enrichment (interaction score)) [27] was -2.51. For the same sequence, the binding signal (log2 enrichment (interaction score)) [28] was -4.8 and the binding signal (log2 enrichment (interaction score)) [29] was less than -7.52.
